Measurements taken from paper PMC2643527.
Results are given in words; binding and its absence hold for the method and conditions named. Binding calls can cover weak binding; strength is not graded here. Where a sequence is shown, tags or fusion partners need not be part of it.

What was measured:
[1] = molecular target: T1, GST-CSPα 1-112 (rat) (UniProt P60905); assay: pull-down; GST-CSPα fusion proteins immobilised on sepharose beads, incubated with 1 µM soluble recombinant Hsp40 or its mutants; washed, Western blot with anti-Hsp40 polyclonal; both purified
T1 sequence: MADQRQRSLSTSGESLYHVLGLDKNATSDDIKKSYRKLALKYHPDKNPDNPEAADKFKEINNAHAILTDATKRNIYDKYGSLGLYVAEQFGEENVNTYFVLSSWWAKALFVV

[2] = molecular target: T2, GST-CSPα 1-198 (full length cysteine string protein alpha) (rat) (UniProt P60905); assay: as above
T2 sequence: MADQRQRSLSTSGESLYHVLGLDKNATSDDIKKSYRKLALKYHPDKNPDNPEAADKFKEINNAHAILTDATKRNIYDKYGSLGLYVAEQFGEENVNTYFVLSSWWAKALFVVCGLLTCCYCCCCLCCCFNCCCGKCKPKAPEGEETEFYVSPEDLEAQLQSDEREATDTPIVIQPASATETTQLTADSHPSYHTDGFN

For “Hsp40 1-340 (full length, soluble recombinant) (rat)”, the binding [1] was “binds” and the binding [2] was “binds”.

In the case of “Hsp40 1-80 HPD→AAA (rat) (domain or fragment)”, the binding [1] is reported as “no binding (tested: 1 µM)” and the binding [2] is reported as “no binding (tested: 1 µM)”.

With Hsp40 1-340 HPD→AAA (rat) the binding [1] was “binds” and the binding [2] was “binds”.

With Hsp40 1-80 (rat) (domain or fragment) the binding [1] was “no binding (tested: 1 µM)” and the binding [2] was “no binding (tested: 1 µM)”.
